Measured values from PMC7949097.
These are yes or no findings as the source states them, for the method shown. In cells and extracts the contact can be indirect. Some binding calls cover weakened binding; strength is not graded here.

Biological target: T1, β1,4-galactosyltransferase 6 (B4GALT6) (UniProt Q9UBX8)
T1 sequence: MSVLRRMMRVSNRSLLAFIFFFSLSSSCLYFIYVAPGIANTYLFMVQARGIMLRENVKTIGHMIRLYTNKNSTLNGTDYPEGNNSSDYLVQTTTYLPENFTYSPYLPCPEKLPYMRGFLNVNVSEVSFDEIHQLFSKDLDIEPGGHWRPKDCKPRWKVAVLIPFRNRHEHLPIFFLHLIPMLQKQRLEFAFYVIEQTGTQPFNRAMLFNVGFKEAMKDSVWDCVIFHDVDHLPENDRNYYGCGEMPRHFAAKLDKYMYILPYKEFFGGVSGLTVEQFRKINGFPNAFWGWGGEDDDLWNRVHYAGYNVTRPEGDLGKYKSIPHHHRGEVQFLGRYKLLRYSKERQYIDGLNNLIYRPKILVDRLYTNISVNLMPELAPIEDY
Assay: split reporter; Bimolecular Fluorescence Complementation Assay; unpublished results

binding: binds
B1: Human Gb3/CD77 synthase (α1,4-galactosyltransferase) (enzyme, UniProt Q9NPC4 1-353)
chain: MSKPPDLLLRLLRGAPRQRVCTLFIIGFKFTFFVSIMIYWHVVGEPKEKGQLYNLPAEIPCPTLTPPTPPSHGPTPGNIFFLETSDRTNPNFLFMCSVESAARTHPESHVLVLMKGLPGGNASLPRHLGISLLSCFPNVQMLPLDLRELFRDTPLADWYAAVQGRWEPYLLPVLSDASRIALMWKFGGIYLDTDFIVLKNLRNLTNVLGTQSRYVLNGAFLAFERRHEFMALCMRDFVDHYNGWIWGHQGPQLLTRVFKKWCSIRSLAESRACRGVTTLPPEAFYPIPWQDWKKYFEDINPEELPRLLSATYAVHVWNKKSQGTRFEATSRALLAQLHARYCPTTHEAMKMYL
